Results: patent US20220260588A1
Results are given in words; binding and its absence hold for the method and conditions named. Some entries that bind do so weakly or less than the wild type. For part of these data: Where a sequence is shown, tags or fusion partners need not be part of it.

Key:
[1] = biological target: T1, peptides with the consensus motif WDETKGE (human); experiment: peptide microarray, antibody at 1 and 10 ug/ml
T1 sequence (peptide): WDETKGE

[2] = biological target: T2, recombinant His6-tagged Mcm5 (fragment of human MCM5 expressed in E. coli) (human) (UniProt P33992); experiment: ELISA, dilution of purified MAb on antigen-limiting 25 ng/well Mcm5 on Ni-NTA plate
T2 sequence: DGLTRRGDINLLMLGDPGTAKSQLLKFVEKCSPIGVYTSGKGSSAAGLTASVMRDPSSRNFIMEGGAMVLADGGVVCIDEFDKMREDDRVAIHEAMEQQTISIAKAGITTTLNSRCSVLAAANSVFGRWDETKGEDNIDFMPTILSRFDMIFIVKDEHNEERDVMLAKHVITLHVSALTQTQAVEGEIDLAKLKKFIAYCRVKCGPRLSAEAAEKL

[3] = biological target: T2, recombinant His6-tagged Mcm5 (fragment of human MCM5 expressed in E. coli) (human); experiment: colorimetric screening ELISA on His-tagged Mcm5 on Ni-NTA plate
[4] = biological target: T2, recombinant His6-tagged Mcm5 (fragment of human MCM5 expressed in E. coli) (human); experiment: colorimetric screening ELISA, hybridoma supernatant on His-tagged Mcm5 on Ni-NTA plate, goat anti-mouse IgG-HRP
[5] = biological target: T3, peptides with the consensus motif DDRVAIH (human); experiment: peptide microarray, antibody at 1 and 10 ug/ml
T3 sequence (peptide): DDRVAIH

Measured: binding

B1: mouse monoclonal IgG antibody 12A7 (antibody, V domains shown)
VH: QQDLQQSGPGILQPTQTLSLTCSFSGFSLSTSGMGVSWIRQSSNMGLEWLAHIFWDDDKRYNPSLRSRLTLSKDTSSSQVFLMITSVSTADSATYYCARRSDYNYYSMDYWGQGTAVTVSS
VL: DIMLTQSPLSLSVTLGDQASISCRSSQNLVQSNGNTYLTWYLQKPGQSPKVLINKVSNRFYGVPDRFSGSGSGTDFTLRISRVEAEDLGIYFCSQSTRVPYTFGGGTKLEIRR
not listed: [5]
binds: all other assays above

B2: mouse monoclonal IgG antibody 4B4 (antibody, V domains shown)
VH: VKLQESGGGLVKPGGSLKLSCAASGFTFSNYAMSWVRQNPEKRLEWVATISRGGSYTYYPDSVKGRFTISRDNAKNTLYLQMNSLRSEDTAMYFCARHGYNYDDGAWFANWGQGTLVTVSA
VL: DIMLTQSPSSLSASLGERVSLTCRASQDIGSSLNWLQQEPDGTIKRLIYATSSLDSGVPKRFSGSRSGSDYSLTISSLESEDFVDYYCLQYASSPPTFGGGTKLEIK
binds: [5] | [1]
